Measured values from PubChem BioAssay AID651768 (National Center for Advancing Translational Sciences (NCATS), 2012).
In all, about 360,000 compounds went through this assay and about 1,700 (0.47%) were called active. Inconclusive means that the source gave no clear call. Such entries were picked first, then a sample of the others. Calls follow the shape of the dose curve; as a rule, active = well fitted inhibition curve with a large enough effect; inconclusive = small, poorly fitted or top-dose-only effect; inactive = no such curve, though single readings can be large or run the other way. A potency beside an inconclusive call is a rough fit, not a confirmed value.

By UniProt entry, the sequences of proteins in these tests, tags left out.
UniProt Q14191, whole entry, looked up: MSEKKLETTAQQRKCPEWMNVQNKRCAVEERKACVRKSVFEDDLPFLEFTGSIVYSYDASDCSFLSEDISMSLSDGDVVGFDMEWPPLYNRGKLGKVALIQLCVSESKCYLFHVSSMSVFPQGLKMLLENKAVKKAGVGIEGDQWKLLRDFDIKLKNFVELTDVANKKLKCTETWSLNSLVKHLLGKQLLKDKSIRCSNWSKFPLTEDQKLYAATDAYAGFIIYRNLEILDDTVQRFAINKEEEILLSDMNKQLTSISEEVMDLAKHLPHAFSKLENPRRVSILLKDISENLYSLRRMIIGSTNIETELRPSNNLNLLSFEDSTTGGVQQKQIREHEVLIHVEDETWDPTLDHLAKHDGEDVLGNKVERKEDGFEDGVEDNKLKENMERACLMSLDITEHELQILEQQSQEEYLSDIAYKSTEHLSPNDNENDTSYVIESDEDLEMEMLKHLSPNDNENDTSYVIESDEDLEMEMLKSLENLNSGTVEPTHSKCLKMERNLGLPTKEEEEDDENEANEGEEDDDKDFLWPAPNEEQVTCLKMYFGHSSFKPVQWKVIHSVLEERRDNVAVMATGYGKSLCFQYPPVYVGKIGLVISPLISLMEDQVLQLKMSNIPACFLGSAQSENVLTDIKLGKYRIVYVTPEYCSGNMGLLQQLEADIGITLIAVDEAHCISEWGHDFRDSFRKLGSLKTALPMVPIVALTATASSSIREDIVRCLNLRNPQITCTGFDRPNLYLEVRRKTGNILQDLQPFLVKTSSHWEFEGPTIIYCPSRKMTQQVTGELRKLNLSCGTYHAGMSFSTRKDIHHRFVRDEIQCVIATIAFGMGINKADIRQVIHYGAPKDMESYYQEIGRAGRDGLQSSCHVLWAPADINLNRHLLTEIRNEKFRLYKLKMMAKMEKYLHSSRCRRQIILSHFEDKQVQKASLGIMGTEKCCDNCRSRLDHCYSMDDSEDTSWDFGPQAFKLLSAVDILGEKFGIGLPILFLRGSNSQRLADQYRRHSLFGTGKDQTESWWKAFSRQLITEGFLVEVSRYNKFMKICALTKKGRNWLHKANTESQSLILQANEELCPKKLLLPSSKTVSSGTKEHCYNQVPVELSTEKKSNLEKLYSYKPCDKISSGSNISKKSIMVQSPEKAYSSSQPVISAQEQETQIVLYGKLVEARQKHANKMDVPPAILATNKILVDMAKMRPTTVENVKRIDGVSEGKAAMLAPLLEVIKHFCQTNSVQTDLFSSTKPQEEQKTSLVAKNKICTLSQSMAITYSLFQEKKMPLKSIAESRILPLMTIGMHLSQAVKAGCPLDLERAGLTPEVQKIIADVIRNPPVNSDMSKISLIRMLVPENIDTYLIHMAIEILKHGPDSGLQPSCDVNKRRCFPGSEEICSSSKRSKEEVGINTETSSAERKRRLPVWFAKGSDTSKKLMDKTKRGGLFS

Target: Bifunctional 3'-5' exonuclease/ATP-dependent helicase WRN (Homo sapiens) (UniProt Q14191)
Test: qHTS for Inhibitors of WRN Helicase; also: nearly all actives have a fitted effect of over 55% in size
Conditions: WRN helicase unwinding, fluorescent forked duplex, kinetic; activity change, negative = inhibition: at 114 µM (top of the series) unless noted
Method in brief: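 WRN at 20 nM final was preincubated with compound for 15 min at room temperature; reaction started with 100 nM forked duplex oligonucleotide carrying fluorophore and quencher plus 2 mM ATP (final). Unwinding followed kinetically by red fluorescence (ex 525/em 598 nm).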
% is scaled to controls: 0 for no effect and ±100 for the full control effect; potency is read from the fitted curve at half-maximal effect.

SMILES	Potency	activity change, negative = inhibition
CC(C)CCN(CCC(C)C)C(CO)(CO)CO	inconclusive: 70.8 µM [inhibitor, single point]	
CC(C)c1ccc(N2C(=O)/C(=C/N(C)C)SC2=S)cc1	active: 20 µM	
O=C(Nc1ccc(S(=O)(=O)NCc2ccco2)cc1)c1ccc2ccccc2n1	inconclusive: 44.7 µM [inhibitor, full curve, poor fit]	
COc1cc(/C=C2\SC(=S)N(Nc3ncc(C(F)(F)F)cc3Cl)C2=O)ccc1O	active: 31.6 µM	
CCc1nnc(NS(=O)(=O)c2ccc(N/C=C\C(=O)c3cccc(OC)c3)cc2)s1		inactive: -29.6%
NC(=O)c1sc2nc3c(c(-c4ccco4)c2c1N)CCCC3		inactive: -16%
CCOC(=O)c1c(NC(=S)Nc2ccc(OCC)cc2)sc2c1CCN(C)C2	inconclusive: 31.6 µM [inhibitor, partial curve]	
O=C(O)/C=C/C(=O)Nc1ccc(N2CCOCC2)nc1N1CCOCC1	inconclusive: 56.2 µM [inhibitor, single point]	
CN1CCN(S(=O)(=O)c2ccc(N3CCN(c4ccc(O)cc4)CC3)c([N+](=O)[O-])c2)CC1	inconclusive: 39.8 µM [inhibitor, full curve, poor fit]	
COc1ccccc1N1CCN(C(=O)CN(c2ccccc2OC)S(=O)(=O)c2ccccc2)CC1		inactive: 4.77%
O=C(COC(=O)c1ccc(Br)o1)NCc1ccco1	inconclusive: 112 µM [inhibitor, partial curve, poor fit]	
CC1=C(C)CS(=O)N(c2ccc(S(N)(=O)=O)cc2)C1 (stereo unspecified)	inconclusive: 50.1 µM [inhibitor, partial curve]	
CCOc1ccc2c(c1)c(N=NC(=N)N)c(O)n2C	inconclusive: 22.4 µM [inhibitor, partial curve]	
CCOc1ccc(C(=S)NC2CCCCC2)cc1OCC		inactive: 4.26%
Cc1cc(C(=O)COC(=O)c2cc(O)c3ccccc3c2O)c(C)n1CC1CCCO1 (stereo unspecified)	inconclusive: 31.6 µM [inhibitor, partial curve]	
CC(C)CCNC(=O)c1onc(CSc2ccccn2)c1C(=O)NCCC(C)C		inactive: -18.9%
N#CCC(=O)Nc1ccc(C(=O)OCC(=O)c2ccc3c(c2)OCCO3)cc1		inactive: -8.97%
CCOc1ccccc1-n1c(=S)sc2c(=O)n(-c3ccc(C)cc3)c(=S)[nH]c21		inactive: 0.0779%
Cc1ccc(-c2cc(C(=O)NCc3ccco3)c3ccccc3n2)o1	active: 56.2 µM	
Cn1ccc(C(=O)Nc2sc3c(c2C(N)=O)CCCCC3)n1		inactive: -13.6%
N#Cc1c(-c2ccco2)c2c([nH]c1=S)CCCC2	inconclusive: 63.1 µM [inhibitor, partial curve]	
COc1ccc(-c2ccc(SCC(=O)Nc3cccc(C(C)=O)c3)nn2)cc1OC		inactive: 4.52%
C[C@H](CO)N1C[C@H](C)[C@@H](CN(C)S(=O)(=O)c2cccc(C#N)c2)OCc2cn(nn2)CCCC1=O		inactive: 3.75%

Four consecutive compounds from above, quoted:
SMILES	Potency	activity change, negative = inhibition
Cc1ccc(-c2cc(C(=O)NCc3ccco3)c3ccccc3n2)o1	active: 56.2 µM	
Cn1ccc(C(=O)Nc2sc3c(c2C(N)=O)CCCCC3)n1		inactive: -13.6%
N#Cc1c(-c2ccco2)c2c([nH]c1=S)CCCC2	inconclusive: 63.1 µM [inhibitor, partial curve]	
COc1ccc(-c2ccc(SCC(=O)Nc3cccc(C(C)=O)c3)nn2)cc1OC		inactive: 4.52%

The listing continues:

SMILES	Potency	activity change, negative = inhibition
NC1=C(Br)C(=O)c2ncccc2C1=O	inconclusive: 15.8 µM [inhibitor, full curve]	
CCNc1ccc(Br)cc(C(=O)/C=C/c2ccccc2Cl)c1=O	inconclusive: 56.2 µM [inhibitor, partial curve, poor fit]	
CC1S/C(=C(\C#N)C(=O)NCc2ccco2)N(Cc2ccco2)C1=O (stereo unspecified)	inconclusive: 56.2 µM [inhibitor, partial curve]	
CCC(NC(=O)CCc1ccccc1)c1ccccc1 (stereo unspecified)		inactive: -5.37%
COc1ccc(C(=O)C2CCCN(C(=O)c3ccc(OC)o3)C2)c(C)c1 (stereo unspecified)	inconclusive: 20 µM [inhibitor, single point]	
Cc1cc2nc(-c3ccc(SCC(=O)N4CCN(C(=O)c5ccco5)CC4)nc3)[nH]c2cc1C	inconclusive: 44.7 µM [inhibitor, partial curve]	
COc1ccc(NC(=O)/C(Cl)=C(/Cl)S(=O)(=O)Cc2ccccc2)cn1	active: 11.9 µM	
Cc1ccc(N(CC(O)CN2CCOCC2)S(=O)(=O)c2ccc([N+](=O)[O-])cc2)cc1 (stereo unspecified)	inconclusive: 20 µM [inhibitor, single point]	
CC1CCC/C(=N\NC(=O)COc2ccc(Cl)cc2Cl)C1 (stereo unspecified)		inactive: -8.98%
O=C(/C=C/c1ccc(O)c(O)c1)c1ccc(S(=O)(=O)N2CCCCCC2)cc1	inconclusive: 11.9 µM [inhibitor, partial curve]	
O=C(COc1ccc(CNC[C@H]2O[C@@H](n3ccc(=O)[nH]c3=O)[C@H](O)[C@@H]2O)cc1)Nc1ccccn1		inactive: -9.47%
O=C(CCc1nnc2ccc(NCc3ccco3)nn12)N1CCN(c2ccccc2)CC1		inactive: -9.67% [at 11.6 µM]
Cc1cc2c(cc1C)C(=O)C(=O)N2		inactive: -14.7%
COc1c(F)c(F)c(C(=O)Nc2ccc3oc(-c4ccncc4)nc3c2)c(F)c1F	inconclusive: 89.1 µM [inhibitor, single point]	
Cc1ccc(S(=O)(=O)c2ccc([N+](=O)[O-])o2)cc1	active: 14.1 µM	
C=CCc1ccc(OCCN2CCc3ccccc3C2)c(OC)c1	inconclusive: 70.8 µM [inhibitor, single point]	
CCC(C(=O)NC1C(=O)N2C(C(=O)O)=C(CSc3nnc(C)s3)CSC12)c1ccccc1 (stereo unspecified)		inactive: -10.5%
c1coc(-c2nc3ccccc3nc2-c2ccco2)c1	inconclusive: 16.8 µM [inhibitor, partial curve]	
CCCCN(C(=O)c1[nH]c(C)c(C(C)=O)c1C)c1c(N)n(CCCC)c(=O)[nH]c1=O	inconclusive: 3.55 µM [inhibitor, full curve]	
C=CCn1c(SCC(=O)Nc2sc3c(c2C#N)CCC(C)C3)nc2cc(C(=O)O)ccc2c1=O (stereo unspecified)		inconclusive: -56.2% [inhibitor]
COc1cc(OC)c(OC)cc1CNCCNC(=O)c1ccco1	inconclusive: 89.1 µM [inhibitor, single point]	
N=C1/C(=C\c2ccc(-c3cccc(Cl)c3)o2)C(=O)N=C2SC=C(c3ccccc3)N12	inconclusive: 35.5 µM [inhibitor, partial curve]	
COc1cc2c(oc(=O)c3cc(C)cc(OC)c32)c2c(C3OC(C)C(O)C(C)(O)C3O)ccc(O)c12 (stereo unspecified)	inconclusive: 22.4 µM [inhibitor, full curve, poor fit]	
